From PubChem BioAssay AID1487 (National Center for Advancing Translational Sciences (NCATS), 2009)
Where “and” joins values, the source holds several entries; their conditions need not be identical. Equal entries are not always repeated. Some of the results follow. Shown are side measurements of this screen, not its main read-out; they come without a call. Compounds called inactive in the main read-out are mostly missing here. The note in brackets gives the kind of curve behind each potency; many fits are weak.

Assay: qHTS Assay for Modulators of Lamin A Splicing
Conditions: HeLa LMNA splicing GFP/RFP minigene ratio, 48 h
Procedure, shortened: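 S3 HeLa stable clones carrying a lamin A-EGFP splicing minigene plus DsRed2 were seeded at 600 cells/well in Opti-MEM with 2% FBS, pin-dosed and incubated 48 h at 37°C. Acumen cytometry (488 nm) gave the GFP/RFP total-intensity ratio.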

[1] = measured here: RFP viability control channel
[2] = measured here: GFP splicing reporter channel

SMILES	AC50 [1]	AC50 [2]
Cc1cccc(C(=O)NNC2=C(C(=O)C(F)(F)F)CCC2)c1O	22.4 µM [rising, single point]	
Cc1cc(/C=C(\C#N)C(=O)Nc2ccc(Cl)cc2)c(C)n1-c1ccc(N2CCOCC2)c([N+](=O)[O-])c1	3.16 µM [rising, full curve]	
COC(=O)/C(=C/c1ccc2c(c1)c1ccccc1n2C)NC(=O)c1ccccc1	35.5 µM [rising, single point]	
COc1ccc(-c2cn(-c3ccccc3)c3[n+]2CCS3)cc1	8.91 µM [rising, partial curve]	2.82 µM [falling, single point] and 3.55 µM [rising, partial curve]
COc1ccccc1-c1nc(-c2ccc(Br)o2)no1	10 µM [falling, partial curve]	28.2 µM [falling, partial curve, poor fit]
O=C(CSc1nnc(-c2cnccn2)n1Cc1ccco1)c1ccc(Cl)cc1	12.6 µM [rising, single point]	
CCN(CC)CCCNC(=O)c1cc2nc3c(c(C(F)(F)F)n2n1)CCc1ccccc1-3		0.447 µM [rising, partial curve, poor fit]
OC[C@H](S)CS	35.5 µM [falling, single point]	35.5 µM [falling, single point]
CS(=O)(=O)N(CC(=O)NCCC1=CCCCC1)c1cccc([N+](=O)[O-])c1	0.0501 µM [falling, full curve, poor fit]	15.8 µM [falling, single point]
CN(Cc1nc(-c2cccc(Cl)c2)no1)C1CCOCC1	35.5 µM [falling, single point]	
S=c1[nH]nc(CSCCOc2ccc(Cl)cc2Cl)o1	5.62 µM [falling, partial curve, poor fit]	14.1 µM [falling, single point]
C[Si](C)(C)O[Si](C)(C)C		0.00355 µM [falling, full curve, poor fit]
CCN(CCNC(=O)CN1CCN(Cc2ccc(Cl)cc2)C1=O)c1ccccc1	31.6 µM [rising, single point]	
CC(=O)Nc1ccc(NC(=O)c2c(C)nc3ccccn23)cc1	0.355 µM [falling, partial curve]	0.398 µM [falling, partial curve]
CCOc1ccc(CNC(=O)c2cc3oc4ccccc4c3n2C)cc1	3.55 µM [rising, full curve]	
Cc1ccc(OCc2ccc(C(=O)NCc3cccnc3)cc2)cc1C	3.55 µM [falling, partial curve]	
O=C(/C=C/c1ccc(OCCCF)cc1)Nc1ccnc(-c2cccnc2)n1	35.5 µM [falling, partial curve, poor fit]	
CCCC(=O)C1=C(N2CCCCC2)CC(C)(C)C(C(=O)OC)C1=O (stereo not given)	0.562 µM [falling, full curve, poor fit]	

SMILES	AC50 [1]	AC50 [2]
COc1cc(C2NC(=S)NC(C)=C2C(=O)Nc2ccc(C)cc2)ccc1O (stereo not given)		0.0126 µM [falling, full curve, poor fit]
COc1cc(/C=C/c2cc(C(F)(F)F)[nH]c(=O)n2)cc(OC)c1OC	35.5 µM [falling, partial curve]	28.2 µM [falling, partial curve]
CCOC(=O)N1CCC(NC(=O)c2cc(S(=O)(=O)NCCc3ccccc3)ccc2F)CC1	28.2 µM [rising, single point]	12.6 µM [rising, single point]
COC(=O)c1nnn(-c2nonc2N)c1CN1CCc2ccccc21	11.2 µM [rising, partial curve, poor fit]	
O=C(Nc1ccccc1)Nc1nnc(Cc2ccc([N+](=O)[O-])cc2)s1		0.355 µM [rising, full curve]
CCOc1cccc2cc(-c3nnc(Nc4ccc(F)c(Cl)c4)s3)c(=O)oc12		22.4 µM [rising, single point]
CCOc1cc(NC(=S)NCCCN2CCOCC2)c(OCC)cc1NC(=O)c1ccccc1C	0.794 µM [rising, full curve, poor fit]	
COC(=O)c1ccccc1NC(=O)Nc1ccc(Br)cn1	0.794 µM [falling, full curve]	0.708 µM [falling, full curve, poor fit]
Cc1[nH]c2ccccc2c1C(=O)CSc1nc2ncc(Cl)cc2[nH]1	7.08 µM [falling, full curve]	10 µM [falling, partial curve]
CCOc1cc(/C=C/c2ccc3cccc([N+](=O)[O-])c3n2)cc(Cl)c1O	2 µM [rising, full curve]	
O=C(Nc1ccccc1C(=O)OCc1nnc(-c2ccccc2)o1)c1ccco1	17.8 µM [rising, partial curve, poor fit]	11.2 µM [rising, partial curve, poor fit]
CCCCCCC(=O)NC(Nc1ccc(S(N)(=O)=O)cc1)C(Cl)(Cl)Cl (stereo not given)	22.4 µM [rising, single point]	11.2 µM [rising, partial curve]
O=C(NCc1ccco1)/C(=C\c1cccs1)NC(=O)c1ccccc1	0.158 µM [falling, full curve, poor fit]	0.282 µM [falling, full curve, poor fit]
O=C(Nc1ccccc1)OCc1ccccn1	0.0562 µM [falling, full curve, poor fit]	0.562 µM [falling, full curve, poor fit]
Cc1cccc(C)c1NC(=O)CN1C(=O)S/C(=C\c2cccn2C)C1=O	2.82 µM [falling, full curve, poor fit]	
CSc1ccccc1NC(=O)Cn1ccsc1=N		2.51 µM [falling, single point]
Cc1cc(C)n(-c2nnc3n2N=C(c2c[nH]c4ccccc24)CS3)n1	4.47 µM [rising, partial curve]	3.55 µM [rising, single point]

Look-ups from the entries so far:
In AC50 [1], COC(=O)c1nnn(-c2nonc2N)c1CN1CCc2ccccc21 reads 11.2 µM [rising, partial curve, poor fit]
In AC50 [2], CCOc1cccc2cc(-c3nnc(Nc4ccc(F)c(Cl)c4)s3)c(=O)oc12 reads 22.4 µM [rising, single point]
In AC50 [1], CC(=O)Nc1ccc(NC(=O)c2c(C)nc3ccccn23)cc1 reads 0.355 µM [falling, partial curve]
